Record: PubChem BioAssay AID652272 (Drosophila RNAi Screening Center, 2013)

- Purpose: 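Genome-wide knock-down search for components of Hedgehog signalling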 (primary screen)
- System: Drosophila clone 8 (Cl8) cells
- Reagents: long dsRNA against Drosophila genes
- Detection: 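Firefly light from a Hedgehog-responsive ptc promoter reporter and Renilla reference light, both read on a plate reader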
- Direction: firefly Hh reporter signal: higher = more ptc reporter light; Renilla reference signal: higher = more Renilla control light
- Active means: 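Called a hit if the two-replicate mean z-score lies below -2 or above +3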
- Meaning of the calls: active = hit: reporter lowered or raised; inactive = not a hit
The screen tested about 21,000 reagents; this is an unselected part of those that have a named target and a result. Of all reagents, 503 (2.4%) were called active. 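Raw plate light values, not normalised; calls rest on replicate z-scores that were not deposited; hits include reporter decreases as well as increases.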 A number with no mark means an inactive call. The numbers tell different reagents against one gene apart. Not stated in the record: the amount of reagent, the time to read-out.

gene knocked down	reagent	firefly Hh reporter signal, replicate 1	firefly Hh reporter signal, replicate 2	firefly Hh reporter signal, replicate 3	Renilla reference signal, replicate 1	Renilla reference signal, replicate 2
VhaM9.7-a (Vacuolar H[+] ATPase M9.7 subunit a)	1	1.35e5	44683		3608	738
lncRNA:CR42862 (long non-coding RNA:CR42862)	1	91984	1.02e5		4034	4633
vlc (vulcan)	1	94448	72353		2067	6600
prc (pericardin)	1	54800	46731	40900	3976	2709
CG12699	1	1.18e5	83290		4777	3285
Rh50	1	1.12e5	77605		4525	2972
Atg4b (Autophagy-related 4b)	1	1.51e5	1.31e5		6203	4784
CG34133	1	1.12e5	52888		2720	1728
CG34174	1	5.83e5	2.57e5		27067	9777
BuGZ (Bub3 interacting GLEBS and Zinc finger domain protein)	1	82987	37344		4264	2170
BuGZ (Bub3 interacting GLEBS and Zinc finger domain protein)	2	1.34e5	51101		3453	4952
CG7133	1	1.45e5	1.11e5		5387	4362
RpL23 (Ribosomal protein L23)	1	28289 (active)	24235		1707	3936
CG15044	1	1.42e5	3.83e5		2816	17744
CG15263	1	1.58e5	90586		3973	7188
CG32695	1	1.11e5	2.77e5		3200	11225
CG10713	1	42368	30805	43090	2770	2464
comt (comatose)	1	68986	2.07e5		1878	7429
Sema2b (Semaphorin 2b)	1	1.68e5	2.64e5		4682	9915
Sema2b (Semaphorin 2b)	2	1.78e5	2.68e5		4765	10715
Sema2b (Semaphorin 2b)	3	1.61e5	86844		3997	6404
Kdm4A (Lysine demethylase 4A)	1	1.21e5	90640		4405	2888
Osi22 (Osiris 22)	1	1.00e5	72054		3733	2008
